Paper doi:10.1101/2023.12.15.571360

Target: GST-Rho–binding domain of Rhotekin (UniProt Q8C6B2)
Assay: pull-down

RhoA (from UniProt Q9QUI0 1-193) was tested, and the binding was “binds”.

These are yes or no findings as the source states them, for the method shown. In cells and extracts the contact can be indirect. A result given as binding can be weak or reduced; the word gives no strength.
